Data published in the supplement of paper PMC12819154, “High-throughput peptide-centric local stability assay extends protein–ligand identification to membrane proteins, tissues and bacteria” (Nature Structural & Molecular Biology, 2025).
The other results are listed elsewhere or left out. Most values lie at the level of the controls, where differences are scatter.

Protein sequences, listed by entry. Tags and fused reporters are not part of them. Lines headed by an entry give the natural chain unless they say otherwise; changes in a name come on top.
UniProt Q02539, whole entry: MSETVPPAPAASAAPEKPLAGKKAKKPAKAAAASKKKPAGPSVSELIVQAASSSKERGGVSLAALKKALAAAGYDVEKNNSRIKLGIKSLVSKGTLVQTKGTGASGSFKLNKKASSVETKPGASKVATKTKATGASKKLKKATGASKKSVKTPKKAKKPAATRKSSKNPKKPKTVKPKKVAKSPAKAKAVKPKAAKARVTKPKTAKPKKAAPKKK
UniProt Q12824, whole entry: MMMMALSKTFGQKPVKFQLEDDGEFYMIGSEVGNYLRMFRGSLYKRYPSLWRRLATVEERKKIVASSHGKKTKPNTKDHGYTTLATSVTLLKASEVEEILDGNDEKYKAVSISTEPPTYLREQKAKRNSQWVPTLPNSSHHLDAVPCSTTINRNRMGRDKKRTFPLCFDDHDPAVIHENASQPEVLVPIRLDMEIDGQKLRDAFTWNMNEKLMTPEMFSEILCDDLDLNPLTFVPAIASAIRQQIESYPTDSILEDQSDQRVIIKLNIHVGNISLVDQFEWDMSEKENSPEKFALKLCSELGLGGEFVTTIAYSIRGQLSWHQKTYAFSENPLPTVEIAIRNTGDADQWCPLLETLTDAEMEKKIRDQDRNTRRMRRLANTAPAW
UniProt Q13105: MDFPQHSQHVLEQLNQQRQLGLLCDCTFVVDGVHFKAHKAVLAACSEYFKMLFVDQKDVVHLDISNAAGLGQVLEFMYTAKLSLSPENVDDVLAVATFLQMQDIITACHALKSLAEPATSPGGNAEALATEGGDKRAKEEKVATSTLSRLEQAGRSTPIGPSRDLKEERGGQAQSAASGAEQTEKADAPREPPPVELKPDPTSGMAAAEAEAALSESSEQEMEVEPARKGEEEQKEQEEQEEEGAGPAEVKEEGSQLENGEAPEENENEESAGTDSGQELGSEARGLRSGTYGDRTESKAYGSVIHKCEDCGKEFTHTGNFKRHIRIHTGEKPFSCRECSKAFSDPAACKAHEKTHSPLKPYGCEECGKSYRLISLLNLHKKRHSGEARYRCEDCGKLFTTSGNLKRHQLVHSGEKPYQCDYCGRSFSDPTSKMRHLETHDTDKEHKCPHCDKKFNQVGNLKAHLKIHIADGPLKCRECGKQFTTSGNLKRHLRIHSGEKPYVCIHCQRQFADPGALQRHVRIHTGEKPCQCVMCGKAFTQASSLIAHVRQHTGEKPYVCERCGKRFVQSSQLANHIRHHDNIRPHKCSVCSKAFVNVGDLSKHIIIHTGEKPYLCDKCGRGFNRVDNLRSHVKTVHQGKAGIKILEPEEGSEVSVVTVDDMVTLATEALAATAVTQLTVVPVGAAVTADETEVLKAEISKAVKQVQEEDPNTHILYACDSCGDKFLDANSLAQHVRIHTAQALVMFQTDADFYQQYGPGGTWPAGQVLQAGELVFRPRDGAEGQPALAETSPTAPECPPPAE
UniProt Q01130: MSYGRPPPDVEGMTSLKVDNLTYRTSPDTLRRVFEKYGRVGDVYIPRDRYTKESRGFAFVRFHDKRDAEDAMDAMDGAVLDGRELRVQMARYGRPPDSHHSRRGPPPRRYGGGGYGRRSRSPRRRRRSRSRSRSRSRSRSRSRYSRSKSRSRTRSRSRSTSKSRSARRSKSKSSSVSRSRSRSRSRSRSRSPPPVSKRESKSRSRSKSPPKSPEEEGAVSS
UniProt Q08211, whole entry: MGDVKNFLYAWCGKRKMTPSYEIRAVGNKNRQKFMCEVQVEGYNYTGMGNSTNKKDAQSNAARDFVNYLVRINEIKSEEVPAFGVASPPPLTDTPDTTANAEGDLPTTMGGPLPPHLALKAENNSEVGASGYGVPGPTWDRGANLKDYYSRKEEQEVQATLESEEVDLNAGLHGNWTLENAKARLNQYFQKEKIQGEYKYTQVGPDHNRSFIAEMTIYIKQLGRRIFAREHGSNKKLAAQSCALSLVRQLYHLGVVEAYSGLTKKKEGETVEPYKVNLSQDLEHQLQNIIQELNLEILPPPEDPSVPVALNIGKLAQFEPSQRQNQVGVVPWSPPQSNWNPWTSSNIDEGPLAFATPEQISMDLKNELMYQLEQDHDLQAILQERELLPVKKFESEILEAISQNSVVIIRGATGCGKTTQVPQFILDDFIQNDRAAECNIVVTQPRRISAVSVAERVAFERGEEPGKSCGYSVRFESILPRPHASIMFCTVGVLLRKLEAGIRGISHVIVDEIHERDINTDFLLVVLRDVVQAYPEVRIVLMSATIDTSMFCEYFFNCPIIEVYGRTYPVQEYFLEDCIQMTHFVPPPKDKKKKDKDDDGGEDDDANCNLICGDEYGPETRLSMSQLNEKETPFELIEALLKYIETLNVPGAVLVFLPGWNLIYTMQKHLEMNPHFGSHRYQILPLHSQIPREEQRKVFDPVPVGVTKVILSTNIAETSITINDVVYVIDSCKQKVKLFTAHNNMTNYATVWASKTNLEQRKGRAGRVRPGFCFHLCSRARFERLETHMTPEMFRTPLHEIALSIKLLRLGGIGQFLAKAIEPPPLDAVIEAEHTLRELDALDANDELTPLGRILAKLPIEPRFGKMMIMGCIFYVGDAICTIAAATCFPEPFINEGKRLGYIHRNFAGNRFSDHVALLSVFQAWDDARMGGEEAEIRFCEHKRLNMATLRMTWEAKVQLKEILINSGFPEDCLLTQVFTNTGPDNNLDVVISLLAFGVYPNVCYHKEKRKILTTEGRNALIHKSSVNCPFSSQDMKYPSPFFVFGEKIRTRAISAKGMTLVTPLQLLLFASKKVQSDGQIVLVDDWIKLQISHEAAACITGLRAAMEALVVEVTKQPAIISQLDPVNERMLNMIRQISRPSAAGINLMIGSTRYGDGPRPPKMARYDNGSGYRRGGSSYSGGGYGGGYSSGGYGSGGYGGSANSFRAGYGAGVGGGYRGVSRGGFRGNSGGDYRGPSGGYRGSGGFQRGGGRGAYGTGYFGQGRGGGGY
UniProt Q06203, whole entry: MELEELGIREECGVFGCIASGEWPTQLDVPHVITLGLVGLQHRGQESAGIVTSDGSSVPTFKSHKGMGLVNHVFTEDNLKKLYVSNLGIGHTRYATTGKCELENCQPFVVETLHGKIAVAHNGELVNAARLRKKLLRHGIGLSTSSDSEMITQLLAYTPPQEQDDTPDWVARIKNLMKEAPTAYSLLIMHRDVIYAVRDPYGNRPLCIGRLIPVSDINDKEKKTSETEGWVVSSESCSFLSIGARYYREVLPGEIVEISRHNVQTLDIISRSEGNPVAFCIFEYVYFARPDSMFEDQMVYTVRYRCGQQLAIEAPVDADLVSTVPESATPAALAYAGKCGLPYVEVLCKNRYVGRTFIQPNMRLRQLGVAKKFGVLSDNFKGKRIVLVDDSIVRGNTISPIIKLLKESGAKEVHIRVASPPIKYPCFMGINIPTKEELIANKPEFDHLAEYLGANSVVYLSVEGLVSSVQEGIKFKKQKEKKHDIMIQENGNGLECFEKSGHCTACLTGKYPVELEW
UniProt Q12766: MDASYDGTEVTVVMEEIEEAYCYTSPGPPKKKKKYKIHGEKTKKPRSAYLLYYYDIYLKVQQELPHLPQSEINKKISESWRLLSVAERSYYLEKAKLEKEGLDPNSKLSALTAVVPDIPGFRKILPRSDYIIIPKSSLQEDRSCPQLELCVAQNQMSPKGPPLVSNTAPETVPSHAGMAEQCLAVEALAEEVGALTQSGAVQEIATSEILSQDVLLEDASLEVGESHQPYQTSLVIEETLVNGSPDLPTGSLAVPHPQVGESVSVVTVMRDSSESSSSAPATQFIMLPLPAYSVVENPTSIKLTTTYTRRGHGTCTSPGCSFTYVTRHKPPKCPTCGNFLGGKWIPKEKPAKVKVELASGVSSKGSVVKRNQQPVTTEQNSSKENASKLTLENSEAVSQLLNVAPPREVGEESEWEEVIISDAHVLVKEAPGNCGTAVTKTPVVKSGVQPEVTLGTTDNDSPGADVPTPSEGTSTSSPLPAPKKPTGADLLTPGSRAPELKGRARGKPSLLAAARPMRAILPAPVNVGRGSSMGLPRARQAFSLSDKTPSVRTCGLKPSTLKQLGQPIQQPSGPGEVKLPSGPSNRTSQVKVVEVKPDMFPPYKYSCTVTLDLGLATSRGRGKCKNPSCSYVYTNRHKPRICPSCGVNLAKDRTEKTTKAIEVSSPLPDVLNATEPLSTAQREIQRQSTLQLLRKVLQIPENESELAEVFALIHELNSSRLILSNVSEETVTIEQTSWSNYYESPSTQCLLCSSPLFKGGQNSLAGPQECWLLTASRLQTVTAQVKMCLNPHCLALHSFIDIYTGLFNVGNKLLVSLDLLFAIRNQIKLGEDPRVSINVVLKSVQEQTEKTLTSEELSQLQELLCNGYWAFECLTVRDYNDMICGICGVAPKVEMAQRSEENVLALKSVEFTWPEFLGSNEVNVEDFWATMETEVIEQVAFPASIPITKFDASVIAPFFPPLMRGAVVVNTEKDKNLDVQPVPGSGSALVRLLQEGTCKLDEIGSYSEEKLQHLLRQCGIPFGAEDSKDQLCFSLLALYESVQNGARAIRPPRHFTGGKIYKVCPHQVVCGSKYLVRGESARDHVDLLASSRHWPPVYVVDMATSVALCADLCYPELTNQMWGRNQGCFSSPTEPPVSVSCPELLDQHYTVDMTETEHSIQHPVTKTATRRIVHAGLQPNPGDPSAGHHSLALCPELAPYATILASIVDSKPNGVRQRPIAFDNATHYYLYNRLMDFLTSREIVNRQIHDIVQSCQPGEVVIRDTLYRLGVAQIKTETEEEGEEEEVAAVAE
UniProt Q13011: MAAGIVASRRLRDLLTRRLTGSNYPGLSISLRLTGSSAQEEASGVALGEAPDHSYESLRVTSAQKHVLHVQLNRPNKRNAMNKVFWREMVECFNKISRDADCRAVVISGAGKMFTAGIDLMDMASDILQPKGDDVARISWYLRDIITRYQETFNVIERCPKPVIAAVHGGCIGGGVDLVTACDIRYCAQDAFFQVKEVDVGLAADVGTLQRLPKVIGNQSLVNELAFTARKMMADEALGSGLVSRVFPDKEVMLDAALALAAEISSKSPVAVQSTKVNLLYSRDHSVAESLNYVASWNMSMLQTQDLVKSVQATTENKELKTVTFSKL
UniProt P99999: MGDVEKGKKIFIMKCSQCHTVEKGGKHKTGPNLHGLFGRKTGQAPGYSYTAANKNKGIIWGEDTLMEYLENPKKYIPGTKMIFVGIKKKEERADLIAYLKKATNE
UniProt Q06055: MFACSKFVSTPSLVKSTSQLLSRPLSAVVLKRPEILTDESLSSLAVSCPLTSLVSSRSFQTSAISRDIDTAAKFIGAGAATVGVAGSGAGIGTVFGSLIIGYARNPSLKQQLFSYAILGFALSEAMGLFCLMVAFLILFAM
UniProt Q13127: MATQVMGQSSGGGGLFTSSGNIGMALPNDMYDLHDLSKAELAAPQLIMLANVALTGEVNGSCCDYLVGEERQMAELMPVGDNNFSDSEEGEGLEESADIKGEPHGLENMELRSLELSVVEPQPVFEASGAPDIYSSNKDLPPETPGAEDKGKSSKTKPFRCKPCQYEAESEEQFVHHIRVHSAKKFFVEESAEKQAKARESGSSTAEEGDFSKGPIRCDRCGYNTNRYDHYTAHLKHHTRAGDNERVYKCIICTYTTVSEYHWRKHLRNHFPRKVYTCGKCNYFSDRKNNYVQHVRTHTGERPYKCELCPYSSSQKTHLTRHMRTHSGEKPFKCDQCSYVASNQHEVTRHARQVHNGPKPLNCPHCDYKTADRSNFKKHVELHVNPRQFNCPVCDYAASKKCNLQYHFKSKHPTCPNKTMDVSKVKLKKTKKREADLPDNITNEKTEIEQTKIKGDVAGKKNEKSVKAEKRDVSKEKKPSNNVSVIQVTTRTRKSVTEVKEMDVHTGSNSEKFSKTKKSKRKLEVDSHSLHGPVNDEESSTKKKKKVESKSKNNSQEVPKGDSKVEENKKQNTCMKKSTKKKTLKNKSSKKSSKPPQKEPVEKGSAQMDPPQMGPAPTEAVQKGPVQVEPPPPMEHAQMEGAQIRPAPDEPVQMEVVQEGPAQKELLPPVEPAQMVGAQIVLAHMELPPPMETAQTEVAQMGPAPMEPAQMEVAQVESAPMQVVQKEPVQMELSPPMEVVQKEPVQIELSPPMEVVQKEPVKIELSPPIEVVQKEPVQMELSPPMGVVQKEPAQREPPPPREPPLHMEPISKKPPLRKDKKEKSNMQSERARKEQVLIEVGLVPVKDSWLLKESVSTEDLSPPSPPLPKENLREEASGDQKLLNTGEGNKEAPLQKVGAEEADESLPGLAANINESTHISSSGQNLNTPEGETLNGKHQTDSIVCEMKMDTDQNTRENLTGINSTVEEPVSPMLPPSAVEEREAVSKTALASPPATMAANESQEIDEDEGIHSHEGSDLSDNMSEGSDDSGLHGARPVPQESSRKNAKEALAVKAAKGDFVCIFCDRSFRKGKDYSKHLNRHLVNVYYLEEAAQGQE
UniProt Q01658: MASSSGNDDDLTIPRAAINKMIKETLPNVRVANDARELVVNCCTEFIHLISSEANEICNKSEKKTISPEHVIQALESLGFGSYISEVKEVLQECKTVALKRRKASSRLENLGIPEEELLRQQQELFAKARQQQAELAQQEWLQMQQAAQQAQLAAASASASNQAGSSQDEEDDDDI

Compound: CN[C@@H]1C[C@H]2O[C@@](C)([C@@H]1OC)n1c3ccccc3c3c4c(c5c6ccccc6n2c5c31)C(=O)NC4 [staurosporine]
Experiment: log2 fold change of tryptic peptide abundance, ligand vs vehicle (limited proteolysis) (log2 ratio); higher = more trypsin-susceptible (destabilized)
Settings: ligand concentration: 20 uM; sample: K562 cleared lysate; digestion: 4 min, 22 C (HT-PELSA RT4min, Orbitrap Astral)

Target | log2 fold change
UniProt P86791 (peptide sequence: MSGSEKEPQFK, peptide start residue: 367) | 0.494
ABHD18 (peptide sequence: HFTSSADKLTNLNLVSR, peptide start residue: 246) (UniProt Q0P651) | 0.372
UniProt Q02386 (peptide sequence: SYTNDASYR, peptide start residue: 219) | -0.536
C13ORF37 (peptide sequence: ILNTGLDMETLSICVR, peptide start residue: 34) (UniProt Q08AG7) | -0.213
PPID (peptide sequence: EGLLSMANAGR, peptide start residue: 115) (UniProt Q08752) | -0.632
KLC1 (peptide sequence: EAEPLCKR, peptide start residue: 315) (UniProt Q07866) | 0.18
UniProt Q02539 (peptide sequence: GTGASGSFKLNK, peptide start residue: 98) | 0.71
PURA (peptide sequence: FFFDVGSNK, peptide start residue: 231) (UniProt Q00577) | -0.283
GABPA (peptide sequence: TLIGYSAAELNR, peptide start residue: 405) (UniProt Q06546) | -0.196
UniProt Q12824 (peptide sequence: TYAFSENPLPTVEIAIR, peptide start residue: 325) | -0.243
ZBTB17 (peptide sequence: AFVNVGDLSK, peptide start residue: 594) (UniProt Q13105) | -0.176
UniProt Q01130 (peptide sequence: YGRPPDSHHSRR, peptide start residue: 92) | 0.617
DHX9 (peptide sequence: KMTPSYEIR, peptide start residue: 16) (UniProt Q08211) | 0.228
KIF5A (peptide sequence: SYVPYRDSK, peptide start residue: 275) (UniProt Q12840) | 0.514
NFX1 (peptide sequence: GKQNHVLK, peptide start residue: 331) (UniProt Q12986) | 0.727
HNRNPA0 (peptide sequence: RGFGFVYFQNHDAADK, peptide start residue: 139) (UniProt Q13151) | -0.182
PPAT (peptide sequence: SGHCTACLTGK, peptide start residue: 500) (UniProt Q06203) | 0.977
HMGXB3 (peptide sequence: QAFSLSDKTPSVR, peptide start residue: 540) (UniProt Q12766) | 0.428
CDC20 (peptide sequence: SAAQMEVASFLLSK, peptide start residue: 84) (UniProt Q12834) | 0.359
TRIM32 (peptide sequence: ELTLQDVELLK, peptide start residue: 272) (UniProt Q13049) | -0.466

Target | log2 fold change
APLP2 (peptide sequence: VSIDNWCR, peptide start residue: 110) (UniProt Q06481) | 0.948
UniProt Q0VD83 (peptide sequence: LLDAEGLMVTGGR, peptide start residue: 916) | 0.209
AKAP12 (peptide sequence: STPVIVSATTK, peptide start residue: 1483) (UniProt Q02952) | 0.347
IFITM3 (peptide sequence: EEHEVAVLGAPHNPAPPTSTVIHIR, peptide start residue: 25) (UniProt Q01628) | -0.0133
CHD3 (peptide sequence: EFQMWAPK, peptide start residue: 803) (UniProt Q12873) | 0.422
BPTF (peptide sequence: MTSIEREEK, peptide start residue: 978) (UniProt Q12830) | 1.13
DSC2 (peptide sequence: NGGQETIEMVK, peptide start residue: 778) (UniProt Q02487) | -0.123
POLE (peptide sequence: ALFGIFIPSQR, peptide start residue: 1498) (UniProt Q07864) | -0.204
ECH1 (peptide sequence: VNLLYSR, peptide start residue: 277) (UniProt Q13011) | 0.253
CYCS (peptide sequence: TGPNLHGLFGR, peptide start residue: 29) (UniProt P99999) | 0.57
UniProt Q06055 (peptide sequence: STSQLLSRPLSAVVLK, peptide start residue: 16) | 0.606
FOXK2 (peptide sequence: TPLGPLSSR, peptide start residue: 360) (UniProt Q01167) | 0.154
REST (peptide sequence: KPSNNVSVIQVTTR, peptide start residue: 478) (UniProt Q13127) | -0.576
FKBP4 (peptide sequence: AEASSGDHPTDTEMK, peptide start residue: 427) (UniProt Q02790) | -0.194
TRAF3 (peptide sequence: VTELESVDKSAGQVAR, peptide start residue: 361) (UniProt Q13114) | -0.717
GALNT2 (peptide sequence: NFYYAAVPSAR, peptide start residue: 394) (UniProt Q10471) | -0.241
UniProt Q02556 (peptide sequence: IPWKHAGK, peptide start residue: 40) | 0.267
DR1 (peptide sequence: MIKETLPNVR, peptide start residue: 21) (UniProt Q01658) | 0.152
ZNF92 (peptide sequence: CEKCGNAFNQSSNLTAR, peptide start residue: 511) (UniProt Q03936) | 0.206

Single entries from the list.
For log2 fold change, CYCS (peptide sequence: TGPNLHGLFGR, peptide start residue: 29) (UniProt P99999) is listed with 0.57
For log2 fold change, AKAP12 (peptide sequence: STPVIVSATTK, peptide start residue: 1483) (UniProt Q02952) is listed with 0.347
